{
  "source": "patent US12252492B2",
  "about": "“Substituted fused pyrrolo-diazepinones and uses thereof” (Northwestern University, priority 2018, dated 2025)",
  "test_system": "NCI60 Cell Line Panel",
  "assay": "NCI60 one-dose screen, whole panel statistics",
  "format": "cell-based, human",
  "conditions": "10^-5 M; for Growth Percent, Delta: delta over the NCI60 cell line panel; for Growth Percent, Range: range over the NCI60 cell line panel",
  "procedure": "Anti-cancer activity screening of all compounds was performed by the NCI Developmental Therapeutics Program (DTP) through their NCI60 screening initiative. Assay details can be found at the website dtp.cancer.gov/discovery_development/nci-60/methodology.htm. Information from this website is reproduced here for convenience.\nAs of early 2007 all compounds submitted to the NCI 60 Cell screen are tested initially at a single high dose (10^-5 M) in the full NCI 60 cell panel. Only compounds which satisfy pre-determined threshold inhibition criteria in a minimum number of cell lines will progress to the full 5-dose assay. The threshold inhibition criteria for progression to the 5-dose screen was selected to efficiently capture compounds with anti-proliferative activity based on careful analysis of historical DTP screening data. The threshold criteria may be updated as additional data becomes available.\nThe One-dose data will be reported as a mean graph of the percent growth of treated cells and will be similar in appearance to mean graphs from the 5-dose assay. The number reported for the One-dose assay is growth relative to the no-drug control, and relative to the time zero number of cells. This allows detection of both growth inhibition (values between 0 and 100) and lethality (values less than 0). This is the same as for the 5-dose assay, described below. For example, a value of 100 means no growth inhibition. A value of 40 would mean 60% growth inhibition. A value of 0 means no net growth over the course of the experiment. A value of −40 would mean 40% lethality. A value of −100 means all cells are dead. Information from the One-dose mean graph is available for COMPARE analysis.\nThe human tumor cell lines of the cancer screening panel are grown in RPMI 1640 medium containing 5% fetal bovine serum and 2 mM L-glutamine. For a typical screening experiment, cells are inoculated into 96 well microtiter plates in 100 μL at plating densities ranging from 5,000 to 40,000 cells/well depending on the doubling time of individual cell lines. After cell inoculation, the microtiter plates are incubated at 37° C., 5% CO2, 95% air and 100% relative humidity for 24 h prior to addition of experimental drugs.\nAfter 24 h, two plates of each cell line are fixed in situ with TCA, to represent a measurement of the cell population for each cell line at the time of drug addition (Tz). Experimental drugs are solubilized in dimethyl sulfoxide at 400-fold the desired final maximum test concentration and stored frozen prior to use. […]\nFollowing drug addition, the plates are incubated for an additional 48 h at 37° C., 5% CO2, 95% air, and 100% relative humidity. […] Bound stain is subsequently solubilized with 10 mM trizma base, and the absorbance is read on an automated plate reader at a wavelength of 515 nm. […]",
  "data": [
    {"smiles": "CC(=O)N1c2ccccc2NC2=C(C(=O)N(Cc3ccccc3)C2(C)C)C1c1ccco1", "note": "(stereo not shown) [NUCC-608455]", "values": [
      {"measurement": "Growth Percent, Delta", "value": 79.72, "unit": "%"},
      {"measurement": "Growth Percent, Range", "value": 139.16, "unit": "%"}
    ]},
    {"smiles": "CC(=O)N1c2ccccc2NC2=C(C(=O)N(C)C2(C)C)C1c1ccccc1", "note": "(stereo not shown) [NUCC-60872]", "values": [
      {"measurement": "Growth Percent, Delta", "value": 109.26, "unit": "%"},
      {"measurement": "Growth Percent, Range", "value": 169.57, "unit": "%"}
    ]}
  ]
}
